# Assay results: the supplement of paper PMC8728848
# Some of the results follow.
# B1: Thrombomodulin Lectin (Mus musculus) (protein)
# chain: LSALAKLQPTGSQCVEHECFALFQGPATFLDASQACQRLQGHLMTVRSSVAADVISLLLSQSSMDLGPWIGLQLPQGCDDPVHLGPLRGFQWVTGDNHTSYSRWARPNDQTAPLCGPLCVTVSTATEAAPGEPAWEEKPCETETQGFLCEFYFTASCRVDPIPVREDTKEEEGAGEPPVSPTPGSPTGPPSARPVLDEPRVPITQNPCPPLKECPPCAAPDLEGGPSVFIFPPKIKDVLMISLSPMVTCVVVDVSEDDPDVQISWFVNNVEVHTAQTQTHREDYNSTLRVVSALPIQHQDWMSGKAFACAVNNRALPSPIEKTISKPRGPVRAPQVYVLPPPAEEMTKKEFSLTCMITGFLPAEIAVDWTSNGRTEQNYKNTATVLDSDGSYFMYSKLRVQKSTWERGSLFACSVVHEGLHNHLTTKTISRSLGK
# How the values were obtained:
# Assay in all cases: glycan array binding signal (z-score within array); higher = stronger binding
# Settings in all cases: glycan notation: IUPAC condensed, linker removed
# [1] = target: Neu5Ac(a2-6)GlcNAc(b1-4)GlcNAc(b1-4)GlcNAc
# Outline: (§1)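 The Consortium for Functional Glycomics database supplied 3228 glycan arrays, of which those lacking an available protein sequence were dropped. The binding signal, a within-array Z-score, was averaged across arrays of the same protein sequence and across linkers. Negative scores can be read as non-binding.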
# Neu5Ac(a2-8)Neu5Ac = target: Neu5Ac(a2-8)Neu5Ac
# Outline: as §1
# [2] = target: Neu5Ac(a2-8)Neu5Ac(a2-3)Gal(b1-3)GalNAc(b1-4)[Neu5Ac(a2-3)]Gal(b1-4)Glc
# Outline: as §1
# [3] = target: Neu5Ac(a2-8)Neu5Ac(a2-3)Gal(b1-3)GalNAc(b1-4)[Neu5Ac(a2-8)Neu5Ac(a2-3)]Gal(b1-4)Glc
# Outline: as §1
# [4] = target: Neu5Ac(a2-8)Neu5Ac(a2-3)Gal(b1-4)Glc
# Outline: as §1
# [5] = target: Neu5Ac(a2-8)Neu5Ac(a2-3)Gal(b1-4)GlcNAc
# Outline: as §1
# [6] = target: Neu5Ac(a2-8)Neu5Ac(a2-3)[Gal(b1-3)GalNAc(b1-4)]Gal(b1-4)Glc
# Outline: as §1
# [7] = target: Neu5Ac(a2-8)Neu5Ac(a2-3)[GalNAc(b1-4)]Gal(b1-4)Glc
# Outline: as §1
# [8] = target: Neu5Ac(a2-8)Neu5Ac(a2-8)Neu5Ac
# Outline: as §1
# [9] = target: Neu5Ac(a2-8)Neu5Ac(a2-8)Neu5Ac(a2-3)Gal(b1-4)Glc
# Outline: as §1
# [10] = target: Neu5Ac(a2-8)Neu5Ac(a2-8)Neu5Ac(a2-3)[Gal(b1-3)GalNAc(b1-4)]Gal(b1-4)Glc
# Outline: as §1
# [11] = target: Neu5Ac(a2-8)Neu5Ac(a2-8)Neu5Ac(a2-3)[GalNAc(b1-4)]Gal(b1-4)Glc
# Outline: as §1
# [12] = target: Neu5Ac(a2-8)Neu5Ac(a2-8)Neu5Ac(a2-8)Neu5Ac(a2-3)[GalNAc(b1-4)]Gal(b1-4)Glc
# Outline: as §1
# [13] = target: Neu5Ac(a2-8)Neu5Gc(a2-3)Gal(b1-4)GlcNAc
# Outline: as §1
# [14] = target: Neu5Ac(b2-6)Gal(b1-4)GlcNAc
# Outline: as §1
# Neu5Ac(b2-6)GalNAc = target: Neu5Ac(b2-6)GalNAc
# Outline: as §1
# [15] = target: Neu5Ac9Ac(a2-3)Gal(b1-3)GlcNAc
# Outline: as §1
# [16] = target: Neu5Ac9Ac(a2-3)Gal(b1-4)GlcNAc
# Outline: as §1
# [17] = target: Neu5Ac9Ac(a2-6)Gal(b1-4)GlcNAc
# Outline: as §1
# [18] = target: Neu5Gc(a2-3)Gal(b1-3)GlcNAc
# Outline: as §1
# [19] = target: Neu5Gc(a2-3)Gal(b1-3)[Fuc(a1-4)]GlcNAc
# Outline: as §1
# Neu5Gc(a2-3)Gal(b1-4)Glc = target: Neu5Gc(a2-3)Gal(b1-4)Glc
# Outline: as §1
# [20] = target: Neu5Gc(a2-3)Gal(b1-4)GlcNAc
# Outline: as §1
# [21] = target: Neu5Gc(a2-3)Gal(b1-4)GlcNAc(b1-3)Gal(b1-4)GlcNAc(b1-2)Man(a1-3)[Neu5Gc(a2-3)Gal(b1-4)GlcNAc(b1-3)Gal(b1-4)GlcNAc(b1-2)Man(a1-6)]Man(b1-4)GlcNAc(b1-4)GlcNAc
# Outline: as §1
# [22] = target: Neu5Gc(a2-3)Gal(b1-4)[Fuc(a1-3)]GlcNAc
# Outline: as §1
# [23] = target: Neu5Gc(a2-6)Gal(b1-4)GlcNAc
# Outline: as §1
# Neu5Gc(a2-6)GalNAc = target: Neu5Gc(a2-6)GalNAc
# Outline: as §1
# [24] = target: Neu5Gc(a2-8)Neu5Ac(a2-3)Gal(b1-4)GlcNAc
# Outline: as §1
# [25] = target: Neu5Gc(a2-8)Neu5Gc(a2-3)Gal(b1-4)GlcNAc
# Outline: as §1
# [26] = target: Neu5Gc(a2-8)Neu5Gc(a2-3)Gal(b1-4)GlcNAc(b1-3)Gal(b1-4)GlcNAc
# Outline: as §1
# [27] = target: Neu5Gc(a2-8)Neu5Gc(a2-6)Gal(b1-4)GlcNAc
# Outline: as §1
# [28] = target: Neu5Gc(b2-6)Gal(b1-4)GlcNAc
# Outline: as §1
binder,measurement,setting,value
B1,glycan array binding signal (z-score),[1],1.62
same,glycan array binding signal (z-score),Neu5Ac(a2-8)Neu5Ac,1.39
same,glycan array binding signal (z-score),[2],1.68
same,glycan array binding signal (z-score),[3],-0.913
same,glycan array binding signal (z-score),[4],-0.881
same,glycan array binding signal (z-score),[5],1.08
same,glycan array binding signal (z-score),[6],0.046
same,glycan array binding signal (z-score),[7],0.125
same,glycan array binding signal (z-score),[8],1.16
same,glycan array binding signal (z-score),[9],3.06
same,glycan array binding signal (z-score),[10],1.45
same,glycan array binding signal (z-score),[11],-0.685
same,glycan array binding signal (z-score),[12],-1.28
same,glycan array binding signal (z-score),[13],-1.13
same,glycan array binding signal (z-score),[14],-1.24
same,glycan array binding signal (z-score),Neu5Ac(b2-6)GalNAc,1.37
same,glycan array binding signal (z-score),[15],-0.473
same,glycan array binding signal (z-score),[16],-1.23
same,glycan array binding signal (z-score),[17],-1.01
same,glycan array binding signal (z-score),[18],-0.635
same,glycan array binding signal (z-score),[19],-1.17
same,glycan array binding signal (z-score),Neu5Gc(a2-3)Gal(b1-4)Glc,-0.363
same,glycan array binding signal (z-score),[20],-0.609
same,glycan array binding signal (z-score),[21],0.221
same,glycan array binding signal (z-score),[22],1.05
same,glycan array binding signal (z-score),[23],-0.944
same,glycan array binding signal (z-score),Neu5Gc(a2-6)GalNAc,-0.901
same,glycan array binding signal (z-score),[24],-1.71
same,glycan array binding signal (z-score),[25],-1.76
same,glycan array binding signal (z-score),[26],0.012
same,glycan array binding signal (z-score),[27],0.139
same,glycan array binding signal (z-score),[28],0.767

# 2 records picked at random from those above, as already listed:
binder,measurement,setting,value
B1,glycan array binding signal (z-score),[4],-0.881
same,glycan array binding signal (z-score),[24],-1.71
